Values from PubChem BioAssay AID652243 (Drosophila RNAi Screening Center, 2013).

Purpose: 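Knock-downs that decrease or increase androgen receptor reporter signal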 (primary screen)
Cell system: Drosophila S2R+ cells
Reagent: long dsRNA against Drosophila genes
Time to read-out: 72 h (48 h, then 24 h hormone)
Challenge: synthetic androgen R1881 at 10 nM for 24 h
Measured: 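Firefly light from an androgen-responsive reporter and Renilla control light per well, raw and unnormalised, for each of two replicates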
Reading the numbers: firefly reporter light: higher = more light from androgen-responsive reporter; Renilla control light: higher = more constitutive control signal (cell number, transfection)
Hit rule: 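Across duplicate plates, a knock-down whose log firefly/Renilla ratio shifted a set fold down or up from the GFP/LacZ control mean was a hit; the downward cut appears as both 1.5 and 3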
Calls: active = hit: reporter lowered or raised; inactive = no hit
In all, the deposit lists about 24,000 reagents; shown is an unselected part of those that have a named target and a result. In the full data, 246 (1%) got an active call. 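Plates not normalised; calls are printed but the firefly/Renilla ratio behind them is not deposited; fold cut for lowering reported inconsistently.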 The raw values are shown without normalisation. Not given: the amount of reagent.

What is on record for CG13376 [DRSC17901]?
firefly reporter light, replicate 1: 2.60e5; firefly reporter light, replicate 2: 3.33e5; Renilla control light, replicate 1: 5.66e6; Renilla control light, replicate 2: 3.56e6; Call: inactive

For CG6180 [DRSC02937], what does the deposit list?
firefly reporter light, replicate 1: 1.15e6; firefly reporter light, replicate 2: 1.15e6; Renilla control light, replicate 1: 2.07e6; Renilla control light, replicate 2: 2.22e6; Call: inactive

What is on record for CG6180 [DRSC25726]?
firefly reporter light, replicate 1: 5.96e5; firefly reporter light, replicate 2: 7.53e5; Renilla control light, replicate 1: 6.13e5; Renilla control light, replicate 2: 7.87e5; Call: inactive

With vls (valois) [DRSC02101], what was measured?
firefly reporter light, replicate 1: 1.00e6; firefly reporter light, replicate 2: 1.17e6; Renilla control light, replicate 1: 1.20e6; Renilla control light, replicate 2: 1.67e6; Call: inactive

With vls (valois) [DRSC27088], how do the results read?
firefly reporter light, replicate 1: 3.69e5; firefly reporter light, replicate 2: 5.02e5; Renilla control light, replicate 1: 1.08e6; Renilla control light, replicate 2: 8.95e5; Call: inactive

For Rrp42 [DRSC07161], how do the results read?
firefly reporter light, replicate 1: 38733; firefly reporter light, replicate 2: 54386; Renilla control light, replicate 1: 1.20e6; Renilla control light, replicate 2: 1.20e6; Call: inactive

With CG42747 [DRSC10209], what does the deposit list?
firefly reporter light, replicate 1: 88424; firefly reporter light, replicate 2: 92191; Renilla control light, replicate 1: 8.73e5; Renilla control light, replicate 2: 1.62e6; Call: inactive

What did the screen give for CG42747 [DRSC10210]?
firefly reporter light, replicate 1: 1.33e5; firefly reporter light, replicate 2: 1.40e5; Renilla control light, replicate 1: 1.42e6; Renilla control light, replicate 2: 2.22e6; Call: inactive

For CG42747 [DRSC26113], what does the deposit list?
firefly reporter light, replicate 1: 2.90e5; firefly reporter light, replicate 2: 3.45e5; Renilla control light, replicate 1: 6.43e5; Renilla control light, replicate 2: 6.75e5; Call: inactive

Entries listed so far whose target name starts with V or v (2):
vls (valois) [DRSC02101] | firefly reporter light, replicate 1 = 1.00e6; firefly reporter light, replicate 2 = 1.17e6; Renilla control light, replicate 1 = 1.20e6; Renilla control light, replicate 2 = 1.67e6; Call = inactive
vls (valois) [DRSC27088] | firefly reporter light, replicate 1 = 3.69e5; firefly reporter light, replicate 2 = 5.02e5; Renilla control light, replicate 1 = 1.08e6; Renilla control light, replicate 2 = 8.95e5; Call = inactive

Further reagents follow:
How did the screen score Nnf1a [DRSC06394]?
firefly reporter light, replicate 1: 90708; firefly reporter light, replicate 2: 1.17e5; Renilla control light, replicate 1: 1.15e6; Renilla control light, replicate 2: 8.02e5; Call: inactive

For ninaC (neither inactivation nor afterpotential C) [DRSC03579], what does the deposit list?
firefly reporter light, replicate 1: 9.04e5; firefly reporter light, replicate 2: 9.19e5; Renilla control light, replicate 1: 1.66e6; Renilla control light, replicate 2: 1.84e6; Call: inactive

With ninaC (neither inactivation nor afterpotential C) [DRSC29875], what was measured?
firefly reporter light, replicate 1: 8.22e5; firefly reporter light, replicate 2: 2.72e5; Renilla control light, replicate 1: 1.30e6; Renilla control light, replicate 2: 5.72e5; Call: inactive

For ninaC (neither inactivation nor afterpotential C) [DRSC36608], what was measured?
Call: inactive

For rod (rough deal) [DRSC17047], what was measured?
firefly reporter light, replicate 1: 1.72e5; firefly reporter light, replicate 2: 1.25e5; Renilla control light, replicate 1: 2.49e6; Renilla control light, replicate 2: 2.05e6; Call: inactive

With CG7017 [DRSC10762], what was measured?
firefly reporter light, replicate 1: 1.79e5; firefly reporter light, replicate 2: 2.90e5; Renilla control light, replicate 1: 1.36e6; Renilla control light, replicate 2: 2.92e6; Call: inactive

For Rnb (R and B) [DRSC16325], what does the deposit list?
firefly reporter light, replicate 1: 57606; firefly reporter light, replicate 2: 59381; Renilla control light, replicate 1: 6.02e5; Renilla control light, replicate 2: 4.35e5; Call: inactive

With Rnb (R and B) [DRSC28764], how do the results read?
firefly reporter light, replicate 1: 7.42e5; firefly reporter light, replicate 2: 4.31e5; Renilla control light, replicate 1: 1.41e6; Renilla control light, replicate 2: 9.77e5; Call: inactive

Which result is listed for bru1 (bruno 1) [DRSC01234]?
firefly reporter light, replicate 1: 32180; firefly reporter light, replicate 2: 44444; Renilla control light, replicate 1: 76078; Renilla control light, replicate 2: 99133; Call: inactive

What did the screen give for bru1 (bruno 1) [DRSC01236]?
firefly reporter light, replicate 1: 9916; firefly reporter light, replicate 2: 12308; Renilla control light, replicate 1: 48059; Renilla control light, replicate 2: 94449; Call: inactive

With bru1 (bruno 1) [DRSC01237], what does the deposit list?
firefly reporter light, replicate 1: 2.07e5; firefly reporter light, replicate 2: 1.84e5; Renilla control light, replicate 1: 1.53e5; Renilla control light, replicate 2: 1.84e5; Call: inactive

How did the screen score bru1 (bruno 1) [DRSC01238]?
firefly reporter light, replicate 1: 2.61e5; firefly reporter light, replicate 2: 1.59e5; Renilla control light, replicate 1: 2.29e5; Renilla control light, replicate 2: 1.76e5; Call: inactive

For bru1 (bruno 1) [DRSC03485], how do the results read?
firefly reporter light, replicate 1: 6.00e5; firefly reporter light, replicate 2: 8.84e5; Renilla control light, replicate 1: 9.00e5; Renilla control light, replicate 2: 1.39e6; Call: inactive
